Measured values from PMC7156629, “Fluorescence anisotropy assays for high throughput screening of compounds binding to lipid II, PBP1b, FtsW and MurJ” (Scientific Reports, 2020).
No constants are given. Whether binding was seen depends on the method and setting. Some binding calls cover weakened binding; strength is not graded here.

Molecular target: T1, FtsW (E. coli) (UniProt P0ABG4)
T1 sequence: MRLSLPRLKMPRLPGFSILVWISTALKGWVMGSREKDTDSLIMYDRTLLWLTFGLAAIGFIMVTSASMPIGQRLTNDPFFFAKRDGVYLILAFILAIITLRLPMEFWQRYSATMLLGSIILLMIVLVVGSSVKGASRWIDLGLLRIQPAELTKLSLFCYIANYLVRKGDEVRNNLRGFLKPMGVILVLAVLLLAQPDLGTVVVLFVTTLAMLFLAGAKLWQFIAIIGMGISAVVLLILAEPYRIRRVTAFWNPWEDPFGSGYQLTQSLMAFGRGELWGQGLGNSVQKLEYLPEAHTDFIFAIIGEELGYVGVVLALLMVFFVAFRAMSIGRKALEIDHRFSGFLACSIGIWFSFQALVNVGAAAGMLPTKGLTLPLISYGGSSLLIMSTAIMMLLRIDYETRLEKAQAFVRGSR
Test: co-purification; FtsW-PBP3 complex purified as previously described (ref. 13); stock in 50 mM Hepes pH 7.5, 0.3 M NaCl, 10% glycerol, 0.05% DDM

B1: PBP3 (protein, UniProt P0AD68 1-577)
chain: MKAAAKTQKPKRQEEHANFISWRFALLCGCILLALAFLLGRVAWLQVISPDMLVKEGDMRSLRVQQVSTSRGMITDRSGRPLAVSVPVKAIWADPKEVHDAGGISVGDRWKALANALNIPLDQLSARINANPKGRFIYLARQVNPDMADYIKKLKLPGIHLREESRRYYPSGEVTAHLIGFTNVDSQGIEGVEKSFDKWLTGQPGERIVRKDRYGRVIEDISSTDSQAAHNLALSIDERLQALVYRELNNAVAFNKAESGSAVLVDVNTGEVLAMANSPSYNPNNLSGTPKEAMRNRTITDVFEPGSTVKPMVVMTALQRGVVRENSVLNTIPYRINGHEIKDVARYSELTLTGVLQKSSNVGVSKLALAMPSSALVDTYSRFGLGKATNLGLVGERSGLYPQKQRWSDIERATFSFGYGLMVTPLQLARVYATIGSYGIYRPLSITKVDPPVPGERVFPESIVRTVVHMMESVALPGGGGVKAAIKGYRIAIKTGTAKKVGPDGRYINKYIAYTAGVAPASQPRFALVVVINDPQAGKYYGGAVSAPVFGAIMGGVLRTMNIEPDALTTGDKNEFV
With B1 the binding was “binds”.
